Source: the supplement of paper PMC12823440, “Inhibitors supercharge kinase turnover through native proteolytic circuits” (Nature, 2025)
Structures can show the parent of a compound that is named as a salt. Some of the results follow. Hit calls seldom repeat between salt and free forms of one compound.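 Kinases were expressed as nanoluciferase fusions in K562 cells and luminescence was read every 4 h between 2 and 18 h as percent of control, DMSO set to 100% and a positive control to 0%. A time point counts as decreased when the signal drops significantly (2 sigma). The hit call is the authors' own, does not follow from the count of time points alone, and its rule is not shown.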

By UniProt entry, the sequences of proteins in these tests, tags left out. Where a name states a change or a piece, a line headed by the entry shows the natural chain unless it says otherwise.
UniProt Q16288, whole entry, looked up: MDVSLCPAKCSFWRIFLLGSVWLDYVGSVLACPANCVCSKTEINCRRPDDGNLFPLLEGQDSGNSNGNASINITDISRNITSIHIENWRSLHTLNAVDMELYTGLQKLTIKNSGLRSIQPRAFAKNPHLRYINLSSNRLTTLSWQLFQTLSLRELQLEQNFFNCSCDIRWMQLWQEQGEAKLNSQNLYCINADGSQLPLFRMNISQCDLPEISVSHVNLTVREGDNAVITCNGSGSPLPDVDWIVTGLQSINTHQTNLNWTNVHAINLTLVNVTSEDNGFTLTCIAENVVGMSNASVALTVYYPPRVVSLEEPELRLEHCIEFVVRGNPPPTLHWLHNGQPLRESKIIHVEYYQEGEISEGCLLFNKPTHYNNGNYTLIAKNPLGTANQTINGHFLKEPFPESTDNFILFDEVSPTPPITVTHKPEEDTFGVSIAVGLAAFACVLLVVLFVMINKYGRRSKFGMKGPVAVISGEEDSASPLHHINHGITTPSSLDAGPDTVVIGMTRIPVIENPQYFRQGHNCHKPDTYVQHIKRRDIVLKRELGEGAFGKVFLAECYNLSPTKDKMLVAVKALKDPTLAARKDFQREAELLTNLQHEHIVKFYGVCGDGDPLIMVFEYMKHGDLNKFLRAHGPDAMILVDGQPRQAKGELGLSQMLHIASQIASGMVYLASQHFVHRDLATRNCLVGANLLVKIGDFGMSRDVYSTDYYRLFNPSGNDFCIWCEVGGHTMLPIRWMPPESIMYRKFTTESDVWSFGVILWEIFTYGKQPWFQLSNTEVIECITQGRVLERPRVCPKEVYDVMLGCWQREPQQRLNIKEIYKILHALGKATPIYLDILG
UniProt O96013: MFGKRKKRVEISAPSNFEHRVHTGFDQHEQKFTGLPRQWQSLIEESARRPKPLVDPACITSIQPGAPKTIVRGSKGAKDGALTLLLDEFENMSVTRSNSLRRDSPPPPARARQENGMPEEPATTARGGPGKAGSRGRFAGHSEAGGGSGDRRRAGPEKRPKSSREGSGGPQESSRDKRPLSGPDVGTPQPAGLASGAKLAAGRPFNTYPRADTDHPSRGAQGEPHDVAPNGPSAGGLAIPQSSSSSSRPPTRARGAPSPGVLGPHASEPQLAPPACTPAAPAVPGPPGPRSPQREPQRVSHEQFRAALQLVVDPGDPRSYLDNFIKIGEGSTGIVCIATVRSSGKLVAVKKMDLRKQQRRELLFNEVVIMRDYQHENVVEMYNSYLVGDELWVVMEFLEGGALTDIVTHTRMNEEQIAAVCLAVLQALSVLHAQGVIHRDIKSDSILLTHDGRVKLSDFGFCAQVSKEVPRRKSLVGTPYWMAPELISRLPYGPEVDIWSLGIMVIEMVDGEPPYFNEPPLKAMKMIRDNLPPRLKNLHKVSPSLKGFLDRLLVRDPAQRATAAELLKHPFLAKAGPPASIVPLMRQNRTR
UniProt P09619, whole entry: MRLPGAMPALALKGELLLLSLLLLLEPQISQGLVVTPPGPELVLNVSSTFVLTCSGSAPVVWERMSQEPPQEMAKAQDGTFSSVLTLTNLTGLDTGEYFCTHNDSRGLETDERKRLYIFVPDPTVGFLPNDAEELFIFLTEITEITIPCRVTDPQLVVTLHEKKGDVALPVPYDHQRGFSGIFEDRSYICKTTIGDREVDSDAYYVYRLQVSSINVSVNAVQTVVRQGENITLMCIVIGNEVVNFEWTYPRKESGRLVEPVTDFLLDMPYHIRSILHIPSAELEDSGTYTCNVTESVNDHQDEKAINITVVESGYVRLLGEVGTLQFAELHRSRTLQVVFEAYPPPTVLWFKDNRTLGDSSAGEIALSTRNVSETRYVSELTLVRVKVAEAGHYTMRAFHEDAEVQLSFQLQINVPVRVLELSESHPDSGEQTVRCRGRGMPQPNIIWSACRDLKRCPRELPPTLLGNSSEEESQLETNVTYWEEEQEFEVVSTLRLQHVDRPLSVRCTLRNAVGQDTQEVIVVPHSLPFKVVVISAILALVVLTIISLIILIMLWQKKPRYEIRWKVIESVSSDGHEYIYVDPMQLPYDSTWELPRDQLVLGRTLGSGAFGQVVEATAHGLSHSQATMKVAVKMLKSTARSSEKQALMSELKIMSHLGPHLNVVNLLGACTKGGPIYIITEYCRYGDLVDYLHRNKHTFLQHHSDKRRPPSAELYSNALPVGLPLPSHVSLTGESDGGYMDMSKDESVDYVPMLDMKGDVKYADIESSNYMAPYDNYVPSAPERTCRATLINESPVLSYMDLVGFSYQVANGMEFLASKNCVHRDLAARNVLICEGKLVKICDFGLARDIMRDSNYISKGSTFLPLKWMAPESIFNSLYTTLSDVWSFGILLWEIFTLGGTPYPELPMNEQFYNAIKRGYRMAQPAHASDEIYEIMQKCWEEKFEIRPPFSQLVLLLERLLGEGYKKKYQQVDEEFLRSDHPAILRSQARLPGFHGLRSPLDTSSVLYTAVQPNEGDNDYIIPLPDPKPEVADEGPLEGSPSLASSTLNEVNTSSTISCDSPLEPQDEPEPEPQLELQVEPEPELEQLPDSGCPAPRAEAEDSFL
UniProt Q15118, whole entry, looked up: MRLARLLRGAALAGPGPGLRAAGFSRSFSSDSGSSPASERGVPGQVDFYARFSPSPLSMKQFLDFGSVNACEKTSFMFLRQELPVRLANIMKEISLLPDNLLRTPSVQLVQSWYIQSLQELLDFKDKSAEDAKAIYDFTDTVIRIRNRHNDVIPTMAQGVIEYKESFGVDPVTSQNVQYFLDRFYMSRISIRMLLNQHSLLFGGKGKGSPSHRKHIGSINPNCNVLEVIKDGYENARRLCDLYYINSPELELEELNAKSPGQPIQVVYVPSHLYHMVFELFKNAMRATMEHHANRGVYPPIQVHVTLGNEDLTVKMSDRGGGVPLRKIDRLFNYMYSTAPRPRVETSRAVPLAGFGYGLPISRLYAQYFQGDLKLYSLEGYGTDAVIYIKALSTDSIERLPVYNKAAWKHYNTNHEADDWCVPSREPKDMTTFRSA
UniProt P53350, whole entry: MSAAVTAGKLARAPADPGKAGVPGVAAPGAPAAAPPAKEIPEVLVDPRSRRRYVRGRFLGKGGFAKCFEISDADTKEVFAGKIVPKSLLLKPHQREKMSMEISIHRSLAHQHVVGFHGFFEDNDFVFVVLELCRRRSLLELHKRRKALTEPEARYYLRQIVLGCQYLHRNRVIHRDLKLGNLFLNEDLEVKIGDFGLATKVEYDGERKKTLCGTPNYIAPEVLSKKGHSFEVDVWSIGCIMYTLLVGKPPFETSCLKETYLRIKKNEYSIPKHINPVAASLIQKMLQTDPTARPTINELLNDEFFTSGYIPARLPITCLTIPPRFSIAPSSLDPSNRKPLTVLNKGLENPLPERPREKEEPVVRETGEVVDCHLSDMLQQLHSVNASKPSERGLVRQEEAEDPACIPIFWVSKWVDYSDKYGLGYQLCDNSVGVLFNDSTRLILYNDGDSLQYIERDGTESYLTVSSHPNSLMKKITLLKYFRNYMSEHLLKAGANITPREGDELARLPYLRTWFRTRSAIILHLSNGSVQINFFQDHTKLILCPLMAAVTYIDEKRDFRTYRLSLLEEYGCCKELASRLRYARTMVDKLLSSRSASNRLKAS
UniProt Q13131: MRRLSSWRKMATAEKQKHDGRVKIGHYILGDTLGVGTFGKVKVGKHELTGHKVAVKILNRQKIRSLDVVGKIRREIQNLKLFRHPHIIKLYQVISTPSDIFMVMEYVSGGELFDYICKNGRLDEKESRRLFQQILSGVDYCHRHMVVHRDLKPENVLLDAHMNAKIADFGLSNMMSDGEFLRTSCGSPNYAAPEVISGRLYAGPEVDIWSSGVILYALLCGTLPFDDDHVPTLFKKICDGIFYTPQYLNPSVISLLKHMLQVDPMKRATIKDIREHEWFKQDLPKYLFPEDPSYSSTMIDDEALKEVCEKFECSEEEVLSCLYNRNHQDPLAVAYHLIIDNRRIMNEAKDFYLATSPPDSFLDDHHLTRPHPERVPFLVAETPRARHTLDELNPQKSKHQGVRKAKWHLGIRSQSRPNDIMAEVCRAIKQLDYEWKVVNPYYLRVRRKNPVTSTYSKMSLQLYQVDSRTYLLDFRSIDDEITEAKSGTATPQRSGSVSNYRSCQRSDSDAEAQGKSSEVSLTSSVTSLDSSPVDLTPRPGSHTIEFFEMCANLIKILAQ
UniProt Q05397, whole entry, looked up: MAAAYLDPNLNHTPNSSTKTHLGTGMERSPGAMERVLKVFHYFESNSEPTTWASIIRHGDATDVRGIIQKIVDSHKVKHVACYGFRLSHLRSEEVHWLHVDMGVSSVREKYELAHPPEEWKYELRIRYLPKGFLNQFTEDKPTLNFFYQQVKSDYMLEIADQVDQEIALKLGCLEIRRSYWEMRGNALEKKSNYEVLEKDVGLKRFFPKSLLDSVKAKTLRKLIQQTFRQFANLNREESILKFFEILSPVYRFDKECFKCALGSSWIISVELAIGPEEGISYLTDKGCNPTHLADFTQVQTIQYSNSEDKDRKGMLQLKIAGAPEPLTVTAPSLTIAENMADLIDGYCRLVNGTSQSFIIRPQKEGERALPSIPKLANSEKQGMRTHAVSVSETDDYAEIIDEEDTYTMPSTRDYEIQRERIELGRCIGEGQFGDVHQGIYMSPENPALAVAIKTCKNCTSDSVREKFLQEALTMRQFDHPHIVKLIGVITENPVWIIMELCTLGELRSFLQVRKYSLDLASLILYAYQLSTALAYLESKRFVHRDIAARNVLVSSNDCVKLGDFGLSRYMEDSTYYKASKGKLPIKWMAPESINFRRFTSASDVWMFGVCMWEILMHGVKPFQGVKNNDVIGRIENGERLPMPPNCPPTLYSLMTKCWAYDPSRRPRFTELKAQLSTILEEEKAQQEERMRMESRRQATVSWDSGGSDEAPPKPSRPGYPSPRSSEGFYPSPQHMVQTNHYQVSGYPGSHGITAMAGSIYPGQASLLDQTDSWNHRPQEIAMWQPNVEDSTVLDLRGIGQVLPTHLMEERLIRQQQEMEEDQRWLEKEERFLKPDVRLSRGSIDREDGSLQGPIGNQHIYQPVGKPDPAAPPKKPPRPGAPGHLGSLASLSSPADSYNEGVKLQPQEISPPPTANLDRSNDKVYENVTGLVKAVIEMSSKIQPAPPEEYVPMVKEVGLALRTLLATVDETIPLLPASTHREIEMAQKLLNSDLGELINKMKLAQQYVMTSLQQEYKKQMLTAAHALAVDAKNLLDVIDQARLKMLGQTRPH
UniProt Q9BRS2: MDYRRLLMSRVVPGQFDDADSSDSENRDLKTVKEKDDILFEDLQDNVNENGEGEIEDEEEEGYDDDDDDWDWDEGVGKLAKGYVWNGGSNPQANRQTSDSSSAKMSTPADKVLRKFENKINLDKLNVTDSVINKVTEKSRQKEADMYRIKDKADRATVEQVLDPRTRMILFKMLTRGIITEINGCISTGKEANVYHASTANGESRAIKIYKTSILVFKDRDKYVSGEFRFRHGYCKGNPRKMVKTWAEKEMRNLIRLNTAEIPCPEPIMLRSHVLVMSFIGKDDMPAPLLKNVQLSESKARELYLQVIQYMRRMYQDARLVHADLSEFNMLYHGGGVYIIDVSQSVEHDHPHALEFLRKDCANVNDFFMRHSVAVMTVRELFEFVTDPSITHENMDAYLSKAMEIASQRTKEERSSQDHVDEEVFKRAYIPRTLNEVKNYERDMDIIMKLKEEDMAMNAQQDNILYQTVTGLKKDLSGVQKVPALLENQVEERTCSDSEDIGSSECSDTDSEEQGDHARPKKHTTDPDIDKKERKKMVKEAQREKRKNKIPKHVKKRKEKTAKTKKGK

How the values were obtained:
Assay in all cases: number of time points (of 5) at which kinase-Nluc abundance scored as decreased, DMSO-normalised (count); higher = more persistent destabilization
Conditions in all cases: K562; 2-18 h
NTRK3 = NTRK3 (UniProt Q16288)
PAK4 = PAK4 (UniProt O96013)
PBK = PBK (UniProt Q96KB5)
PDGFRB = PDGFRB (UniProt P09619)
PDK1 = PDK1 (UniProt Q15118)
PDPK1 = PDPK1 (UniProt O15530)
PIK4CA = PIK4CA (UniProt P42356)
PIK4CB = PIK4CB (UniProt Q9UBF8)
PLK1 = PLK1 (UniProt P53350)
PRKAA1 = PRKAA1 (UniProt Q13131)
PRKCA = PRKCA (UniProt P17252)
PTK2 = PTK2 (UniProt Q05397)
PTK2B = PTK2B (UniProt Q14289)
RAF1 = RAF1 (UniProt P04049)
[1] = target: RAF1_S257L (clone: RAF1_mut) (UniProt P04049)
RET = RET (UniProt P07949)
[2] = target: RET_M918T (clone: RET_mut) (UniProt P07949)
RIOK1 = RIOK1 (UniProt Q9BRS2)
RIPK1 = RIPK1 (UniProt Q13546)
RIPK2 = RIPK2 (UniProt O43353)

Measured: number of time points

C=CC(=O)N[C@H]1C=C(C)c2c(-c3cnc4ccccc4c3)c3c(N)ncnc3n2C1 (10 µM)
0: all assays above

Cc1ccccc1-n1c(Cn2ncc3c(N)ncnc32)nc2cccc(C)c2c1=O (10 µM)
0: all assays above

CCCCNc1nc(N)c2[nH]c(=O)n(Cc3ccc(C)nc3)c2n1 (10 µM)
1: PTK2
0: all other assays above

CC(C)=CC[C@@H](OC(=O)CC(C)(C)O)C1=CC(=O)c2c(O)ccc(O)c2C1=O [β-Hydroxyisovalerylshikonin] (2.5 µM)
0: all assays above

Cc1[nH]ncc1-c1cc2nc([C@H]3CC4CCN3CC4)[nH]c(=O)c2s1 [(R)-Simurosertib] (10 µM)
0: all assays above

O=C1C=CC[C@@H]2[C@H]3CCCN4CCC[C@@H](CN12)[C@@H]34 [Sophocarpine] (10 µM)
0: all assays above

C/C=C(/C)C(=O)O[C@H]1[C@@H]2[C@H](C)C(=O)O[C@@H]2C[C@@H](C)[C@@H]2C=CC(=O)[C@]21C [Brevilin A] (2.5 µM)
0: all assays above

C[C@H]1CC[C@]2(NC1)O[C@H]1C[C@H]3[C@@H]4CC[C@H]5C[C@@H](O[C@@H]6O[C@H](CO)[C@H](O[C@@H]7O[C@H](CO)[C@@H](O)[C@H](O[C@@H]8OC[C@@H](O)[C@H](O)[C@H]8O)[C@H]7O[C@@H]7O[C@H](CO)[C@@H](O)[C@H](O)[C@H]7O)[C@H](O)[C@H]6O)CC[C@]5(C)[C@H]4CC[C@]3(C)[C@H]1[C@@H]2C [Tomatine] (2.5 µM)
4: PIK4CA
2: PDGFRB
5: NTRK3 | RET
0: all other assays above

CC(=O)c1c(O)c(C)c(O)c(Cc2c(O)c3c(c(C(=O)/C=C/c4ccccc4)c2O)OC(C)(C)C=C3)c1O [Rottlerin] (2 µM)
0: all assays above

Cc1ccccc1-n1c(Cn2cnc3c(N)ncnc32)nc2cccc(C)c2c1=O (10 µM)
0: all assays above

Cn1cc(C2=C(c3cn(C4CCN(Cc5ccccn5)CC4)c4ccccc34)C(=O)NC2=O)c2ccccc21 [Enzastaurin] (10 µM)
0: all assays above

Taken from the listing (2 entries):
C[C@H]1CC[C@]2(NC1)O[C@H]1C[C@H]3[C@@H]4CC[C@H]5C[C@@H](O[C@@H]6O[C@H](CO)[C@H](O[C@@H]7O[C@H](CO)[C@@H](O)[C@H](O[C@@H]8OC[C@@H](O)[C@H](O)[C@H]8O)[C@H]7O[C@@H]7O[C@H](CO)[C@@H](O)[C@H](O)[C@H]7O)[C@H](O)[C@H]6O)CC[C@]5(C)[C@H]4CC[C@]3(C)[C@H]1[C@@H]2C [Tomatine] (2.5 µM)
4: PIK4CA
2: PDGFRB
5: NTRK3 | RET
0: all other assays above

CC(=O)c1c(O)c(C)c(O)c(Cc2c(O)c3c(c(C(=O)/C=C/c4ccccc4)c2O)OC(C)(C)C=C3)c1O [Rottlerin] (2 µM)
0: all assays above

Next part

O=c1[nH]c2ccccc2n1C1CCN(Cc2ccc(-c3[nH]c4cc5ncnc5cc4nc3-c3ccccc3)cc2)CC1 [AKT inhibitor VIII] (2.5 µM)
0: all assays above

C[S+]([O-])/C=C/CCN=C=S (stereo not given) [Sulforaphene] (10 µM)
0: all assays above

N#CC(C#N)=NNc1cccc(Cl)c1 (2.5 µM)
2: [1]
1: RIOK1 | RIPK2
0: all other assays above

O=c1ccc2cc(O[C@@H]3O[C@H](CO)[C@@H](O)[C@H](O)[C@H]3O)c(O)cc2o1 [Esculin] (10 µM)
0: all assays above

C=CC(=O)Nc1ccc2[nH]c(=O)n(C3CCN(Cc4ccc(-c5nc6cc[nH]c(=O)c6cc5-c5ccccc5)cc4)CC3)c2c1 [Borussertib] (10 µM)
0: all assays above

CCN1CCN(C(=O)Cc2ccc(Nc3ncc(F)c(Nc4ccc(C(=O)Nc5ccccc5Cl)cc4)n3)cc2)CC1 (2.5 µM)
0: all assays above

COc1ccc2c(c[n+](C)c3c4cc5c(cc4ccc23)OCO5)c1OC [Chelerythrine (chloride)] (10 µM)
4: NTRK3
3: RIPK1
0: all other assays above

COc1ccc(N(C(=O)Oc2c(C)cccc2C)c2ccnc(Nc3ccc(N4CCN(C)CC4)cc3)n2)c(OC)c1 (2.5 µM)
0: all assays above

C/C(O)=C(\C#N)C(=O)Nc1cc(Br)ccc1Br (10 µM)
0: all assays above

C[C@H]1CC[C@]2(NC1)O[C@H]1C[C@H]3[C@@H]4CC[C@H]5C[C@@H](O)CC[C@]5(C)[C@H]4CC[C@]3(C)[C@H]1[C@@H]2C [Tomatidine (hydrochloride)] (10 µM)
0: all assays above

O=C1c2ccccc2C(=O)c2c1cccc2-c1cnn(C2CCNCC2)c1 [PDK4-IN-1 (hydrochloride)] (10 µM)
0: all assays above

C[C@H]1CC[C@]2(NC1)O[C@H]1C[C@H]3[C@@H]4CC[C@H]5C[C@@H](O)CC[C@]5(C)[C@H]4CC[C@]3(C)[C@H]1[C@@H]2C [Tomatidine] (2 µM)
0: all assays above
